The source of these data is US20240294635A1.

The test deals with cynomolgus/rhesus macaque CD47 protein, His Tag (ACRObiosystems, Cat. No. CD7-C52H1) (cynomolgus monkey (cynomolgus/rhesus macaque)). In words: Biacore SPR. A general note: In SPR one partner is held on a chip, and binding of the other changes the refractive index at the surface.

Residue numbers refer to the chain shown, from its start. Results are given in words; binding and its absence hold for the method and conditions named. Some binding calls cover weakened binding; strength is not graded here.

B1: Xi3F10 (antibody, human IgG4 S228P, kappa, V domains shown)
VH: EVQLQQSVAELMKPGASVKIYCKATGYTFSRYWIEWVKQRPGHGLEWIGEFIPGSDTTNFNEKFKGKATFTAEISSNTAYMQLSSLTSEDSAVYFCARGGLRRMDYWGQGTSVTVSS
VL: DIVMTQTPAIMSASPGEKVTMTCRASSSVSSTYLHWYQQKSGASPKLWIYTTSTLASGVPARFSGSGSGTSYSLTISSVEAEDAATYYCQQFSDSTWTFGGGTKLEIKR
Consider B1, for which the binding result is recorded as “binds”.

B2: hz3F10-1.2 (antibody, human IgG4 S228P, kappa, V domains shown)
VH: QVQLVQSGAEVKKPGSSVKVSCKASGYTFSRYWIEWVRQAPGQGLEWMGEFIPGSDTTNYAQKFQGRVTITAEISTNTAYMELSSLRSEDTAVYYCARGGLRRMDYWGQGTLVTVSS
VL: DIQMTQSPSSLSASVGDRVTITCRASSSVSSTYLHWYQQKPGKAPKLLIYTTSTLASGVPSRFSGSGSGTDFTLTISSLQPEDFATYYCQQFSDSTWTFGQGTKLEIKR
For B2, the binding entry is given as “binds”.

B3: hz3F10-2.2 (antibody, human IgG4 S228P, kappa, V domains shown)
VH: B2 VH
VL: B2 VL with D94E
In the case of B3, the binding result is recorded as “binds”.

B4: hz3F10-5.2 (antibody, human IgG4 S228P, kappa, V domains shown)
VH: B2 VH
VL: B2 VL with L48W, D71S, F72Y
On to B4, for which the binding entry is given as “binds”.

B5: hz3F10-6.2 (antibody, human IgG4 S228P, kappa, V domains shown)
VH: B2 VH
VL: B2 VL with L48W, D71S, F72Y, D94E
Take B5: the binding result was “binds”.

B6: hz3F10-4.2 (antibody, human IgG4 S228P, kappa, V domains shown)
VH: B2 VH
VL: B2 VL with D71S, F72Y, D94E
Regarding B6, the binding entry is on record as “binds”.

B7: Xi2H8 (antibody, human IgG4 S228P, kappa, V domains shown)
VH: QVQLKESGPGLVAPSQSLSITCTVSGFSLTNYGVHWVRQPPGKGLEWLGIIWAGGSTNYNSALMSRLSISKDNSKSQVFLKMNSLQTDDTAMYYCARDDYASMDYWGQGTSVTVSS
VL: DAFMTQTPLSLPVSLGDQASISCRSSQSLVHSNGNTYLHWYLQKPGQSPKLLIYKVSNRFSGVPDRFSGSGSGTDFTLKISRVEAEDLGVYFCSQSTHVPYTLGGGTKLEIKR
Regarding B7, the binding entry is listed as “binds”.

B8: Xi16E5 (antibody, human IgG4 S228P, kappa, V domains shown)
VH: EVQLQQSGPELKKPGETVKISCKASGYTFTNYGMNWVKQVPGKGLKWMGWINTNTGEPTYAEEFKGRFAFSLETSARTAFLQINNLKNEDTATYFCTRFSHLRGPMDYWGQGASVTVSS
VL: B7 VL with F3V, N35Y, V83L, Y101P, L103F
Regarding B8, the binding entry is on record as “binds”.

B9: hz14A9-2.3 (antibody, human IgG4 S228P, kappa, V domains shown)
VH: QVQLVQSGAEVKKPGASVKVSCKVSGFNIEDDYIEWVRQAPGQGLEWMGRIDPANDKTKYAQKFQGRVTMTGDTSTNTVYMELSSLRSEDTAVYYCARPGLRRYYSMDYWGQGTLVTVSS
VL: DIQMTQSPSSLSASVGDRVTITCKASENVVSYVSWYQQKPGKAPKLLIYGASNRYTGVPSRFIGSGSSTDFTLTISSLQPEDFATYYCGQSYSYPLTFGQGTKLEIKR
Consider B9, for which the binding result is “binds”.

B10: hz14A9-2.4 (antibody, human IgG4 S228P, kappa, V domains shown)
VH: B9 VH with A97T
VL: B9 VL
Turning to B10, the binding entry was “binds”.

B11: Xi14A9 (antibody, human IgG4 S228P, kappa, V domains shown)
VH: EVQLQQSGAEVARPGASVKLSCTVSGFNIEDDYIEWVKQRPEQGLEWIGRIDPANDKTKYAPKFQDKATITGDTSSNTAYLQLSSLTSEDTAVYYCTRPGLRRYYSMDYWGQGTSVTVSS
VL: NIVLTQSPKSMSMSVGERVTLSCKASENVVSYVSWYQQKPEQSPKLLIYGASNRYTGVPDRFIGSGSSTDFTLIISSFQPEDLADYHCGQSYSYPLTFGAGTKLELKR
As to B11, the binding result was “binds”.
